These are yes or no findings as the source states them, for the method shown. In cells and extracts the contact can be indirect. Some results given as binding are weak or reduced against the parent protein; the word gives no strength. Tags and fused reporters may be left off the sequences shown.
T1: FLAG-malin (mouse (endogenous in C57BL/6J knock-in mice)) (UniProt Q8BR37)
T1 sequence: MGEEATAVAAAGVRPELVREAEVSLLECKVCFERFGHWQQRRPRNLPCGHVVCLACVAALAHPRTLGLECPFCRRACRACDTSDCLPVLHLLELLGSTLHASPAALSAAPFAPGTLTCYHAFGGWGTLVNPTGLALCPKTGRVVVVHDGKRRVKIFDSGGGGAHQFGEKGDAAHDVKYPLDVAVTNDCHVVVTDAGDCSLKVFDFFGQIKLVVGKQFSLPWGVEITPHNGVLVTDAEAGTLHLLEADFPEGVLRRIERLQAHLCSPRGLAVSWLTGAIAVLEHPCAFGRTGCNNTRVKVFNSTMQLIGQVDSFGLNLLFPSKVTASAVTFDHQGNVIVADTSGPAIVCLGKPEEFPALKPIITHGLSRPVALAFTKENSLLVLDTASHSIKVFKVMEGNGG

T2: laforin (mouse (endogenous in mouse tissues)) (UniProt Q9WUA5)
T2 sequence: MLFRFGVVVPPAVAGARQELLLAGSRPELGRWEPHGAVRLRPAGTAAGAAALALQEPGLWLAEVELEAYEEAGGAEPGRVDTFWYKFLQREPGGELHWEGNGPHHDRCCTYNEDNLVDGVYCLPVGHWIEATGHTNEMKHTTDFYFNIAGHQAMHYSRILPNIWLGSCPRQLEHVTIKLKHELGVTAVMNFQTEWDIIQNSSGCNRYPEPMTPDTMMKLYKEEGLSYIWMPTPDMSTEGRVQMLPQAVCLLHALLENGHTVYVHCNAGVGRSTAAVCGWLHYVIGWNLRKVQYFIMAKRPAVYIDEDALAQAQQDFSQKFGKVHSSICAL

B1: laforin (protein, UniProt Q9WUA5 1-330)
chain: T2 sequence
B2: FLAG-malin (protein, UniProt Q8BR37 1-401)
chain: T1 sequence

Assays:
[1] = biological target: T1, FLAG-malin (mouse (endogenous in C57BL/6J knock-in mice)); assay: co-IP; IP with anti-FLAG antibody and protein G agarose from the glycogen-enriched high-speed pellet (HSP, 100,000 g) of skeletal muscle of Malin^FLAG/FLAG mice; 700 ug protein; blot with anti-laforin
[2] = biological target: T1, FLAG-malin (mouse (endogenous in C57BL/6J knock-in mice)); assay: co-IP; IP with anti-FLAG antibody and protein G agarose from low-speed supernatant (LSS, 700 ug protein) of skeletal muscle, heart, liver and brain of Malin^FLAG/FLAG mice; overnight at 4 C; washes in PBST; blot with anti-laforin
[3] = biological target: T2, laforin (mouse (endogenous in mouse tissues)); assay: co-IP; reverse co-IP: IP with anti-laforin antibody and protein G agarose from LSS (700 ug protein) of skeletal muscle, heart, liver and brain of Malin^FLAG/FLAG mice; overnight at 4 C; washes in PBST; blot with anti-FLAG

| Binder | binding [1] | binding [2] | binding [3] |
| --- | --- | --- | --- |
| B1 | binds | binds |  |
| B2 |  |  | binds |

Reference: paper PMC9844227
